Results are given in words; binding and its absence hold for the method and conditions named. In cells and extracts the contact can be indirect. Some results given as binding are weak or reduced against the parent protein; the word gives no strength. Where a sequence is shown, tags or fusion partners need not be part of it.
Tests used:
[1] = biological target: T1, full-length GASZ (GFP-GASZ and FLAG-GASZ) (mouse) (UniProt Q8VD46); assay: co-IP; GFP- and FLAG-tagged full-length GASZ co-expressed in 293T cells without or with FLAG-P345/401; lysate precipitated with a GFP antibody, Western blot with FLAG and GFP antibodies
T1 sequence: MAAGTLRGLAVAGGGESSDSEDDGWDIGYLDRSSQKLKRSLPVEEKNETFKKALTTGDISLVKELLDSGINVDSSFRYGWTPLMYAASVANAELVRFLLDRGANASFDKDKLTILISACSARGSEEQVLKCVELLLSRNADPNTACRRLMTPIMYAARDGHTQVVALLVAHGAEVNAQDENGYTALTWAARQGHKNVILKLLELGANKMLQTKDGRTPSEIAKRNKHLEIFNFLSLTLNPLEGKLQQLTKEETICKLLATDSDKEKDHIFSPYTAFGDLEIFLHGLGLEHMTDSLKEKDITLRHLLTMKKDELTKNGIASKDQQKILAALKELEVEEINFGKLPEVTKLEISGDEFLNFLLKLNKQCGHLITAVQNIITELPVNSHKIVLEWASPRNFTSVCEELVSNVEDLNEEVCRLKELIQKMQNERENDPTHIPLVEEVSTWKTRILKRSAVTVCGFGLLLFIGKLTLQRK

[2] = biological target: T2, FLAG-GASZ-Δ345/401 (mouse) (UniProt Q8VD46); assay: co-IP; GFP-GASZ co-expressed with FLAG-tagged GASZ or mutants in 293T cells; lysate (50 mM Tris pH 7.6, 300 mM NaCl, 1% Triton X-100) precipitated with FLAG affinity beads, Western blot
T2 sequence: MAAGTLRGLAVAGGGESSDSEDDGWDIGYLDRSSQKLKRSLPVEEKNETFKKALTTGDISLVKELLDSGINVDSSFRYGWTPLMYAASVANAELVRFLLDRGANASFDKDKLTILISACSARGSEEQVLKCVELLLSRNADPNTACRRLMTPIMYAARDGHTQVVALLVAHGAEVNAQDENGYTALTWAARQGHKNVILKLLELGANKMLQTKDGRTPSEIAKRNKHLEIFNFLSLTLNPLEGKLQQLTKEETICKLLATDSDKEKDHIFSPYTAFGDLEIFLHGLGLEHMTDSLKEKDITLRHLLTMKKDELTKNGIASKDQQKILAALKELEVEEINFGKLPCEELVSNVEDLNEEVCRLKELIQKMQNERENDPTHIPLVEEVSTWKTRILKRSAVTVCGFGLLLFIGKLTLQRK

B1: FLAG-P345/401 (peptide, UniProt Q8VD46 345-401)
chain: EVTKLEISGDEFLNFLLKLNKQCGHLITAVQNIITELPVNSHKIVLEWASPRNFTSV
[1]
  binding: binds

B2: full-length GASZ (GFP-GASZ and FLAG-GASZ) (protein, UniProt Q8VD46 1-475)
chain: MAAGTLRGLAVAGGGESSDSEDDGWDIGYLDRSSQKLKRSLPVEEKNETFKKALTTGDISLVKELLDSGINVDSSFRYGWTPLMYAASVANAELVRFLLDRGANASFDKDKLTILISACSARGSEEQVLKCVELLLSRNADPNTACRRLMTPIMYAARDGHTQVVALLVAHGAEVNAQDENGYTALTWAARQGHKNVILKLLELGANKMLQTKDGRTPSEIAKRNKHLEIFNFLSLTLNPLEGKLQQLTKEETICKLLATDSDKEKDHIFSPYTAFGDLEIFLHGLGLEHMTDSLKEKDITLRHLLTMKKDELTKNGIASKDQQKILAALKELEVEEINFGKLPEVTKLEISGDEFLNFLLKLNKQCGHLITAVQNIITELPVNSHKIVLEWASPRNFTSVCEELVSNVEDLNEEVCRLKELIQKMQNERENDPTHIPLVEEVSTWKTRILKRSAVTVCGFGLLLFIGKLTLQRK
[2]
  binding: no binding
[1]
  binding: binds
